Assay results taken from PMC9437119.
Results are given in words; binding and its absence hold for the method and conditions named. Some results given as binding are weak or reduced against the parent protein; the word gives no strength. Where a sequence is shown, tags or fusion partners need not be part of it.

Target: myc-tagged human Mid51(R169W) (human) (UniProt Q9NQG6)
Assay: SDS-resistant oligomers on SDS-PAGE immunoblot of the immunoprecipitate; anti-myc immunoprecipitate of the Mid51/Fis1 complex from HeLa lysate heated 20 min at 55°C, 4-20% Tris-Glycine SDS-PAGE; SDS-resistant complexes detected with anti-myc (Mid51 species) or anti-Flag (Fis1 species); species normalized to monomer

B1: myc-tagged human Mid51(R169W) (protein, UniProt Q9NQG6 1-463)
chain: MAGAGERKGKKDDNGIGTAIDFVLSNARLVLGVGGAAMLGIATLAVKRMYDRAISAPTSPTRLSHSGKRSWEEPNWMGSPRLLNRDMKTGLSRSLQTLPTDSSTFDTDTFCPPRPKPVARKGQVDLKKSRLRMSLQEKLLTYYRNRAAIPAGEQARAKQAAVDICAELWSFLRAKLPDMPLRDMYLSGSLYDDLQVVTADHIQLIVPLVLEQNLWSCIPGEDTIMNVPGFFLVRRENPEYFPRGSSYWDRCVVGGYLSPKTVADTFEKVVAGSINWPAIGSLLDYVIRPAPPPEALTLEVQYERDKHLFIDFLPSVTLGDTVLVAKPHRLAQYDNLWRLSLRPAETARLRALDQADSGCRSLCLKILKAICKSTPALGHLTASQLTNVILHLAQEEADWSPDMLADRFLQALRGLISYLEAGVLPSALNPKVNLFAELTPEEIDELGYTLYCSLSEPEVLLQT
binding: binds
